For twelve compounds, survivor count and T/C results are on record in PubChem BioAssay AID220 (DTP/NCI, 2004).

In this test the test system is CD8F1 mice, subcutaneous mammary adenocarcinoma, T/C%. The experiment in a line: NCI In Vivo Anticancer Drug Screen. Data for tumor model Mammary Adenocarcinoma CD8F1 (subcutaneous) in CD8F1. As to conditions: higher T/C = larger tumour. A digest of the protocol: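 Mice carrying transplanted tumors received test compound, and survival or tumor size was recorded. Each value is the treated-group measurement divided by the corresponding measurement in vehicle-dosed controls.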

Setting [1] is: T/C endpoint: median tumor weight (est.), dose: 12.5 mg/kg/injection, schedule: Q07DX005 (ip), vehicle: saline with Tween-80.
Where [2] appears, read: T/C endpoint: median tumor weight change, dose: 500.0 mg/kg/injection, schedule: Q01DX001 (ip), vehicle: saline with Tween-80.
Where [3] appears, read: T/C endpoint: median tumor weight change, dose: 1000.0 mg/kg/injection, schedule: Q01DX001 (ip), vehicle: saline with Tween-80.
Setting [4] is: T/C endpoint: median tumor weight change, dose: 2000.0 mg/kg/injection, schedule: Q01DX001 (ip), vehicle: saline with Tween-80.

Each structure is given as a SMILES string. The list does not hold the whole screen: it gathers tests that were run many times, whatever their T/C, doses with no T/C, and many T/C values between a quarter and a half above the control. Further doses and runs are listed elsewhere. T/C is the treated group as % of the vehicle group. Schedule codes are those of the source, taken here to give the interval after Q, in days (D) or hours (H), and the number of doses after X. Some T/C values are negative: the treated tumours shrank. Some T/C values carry the count of animals alive at the toxicity check (mostly the fifth day); where none is given, no animal had died by that day. Some entries give survivors of the animals treated and no T/C: the source files T/C as zero there, which appears to mark a toxic dose or a test without result, not a measured value. Survivors were counted at the toxicity check, usually on the fifth day, unless a day is given; later deaths do not show. Some doses were run more than once; the results are listed from low to high.

Regarding `CCCC(=O)O`, the survivor count (T/C endpoint: median tumor weight change, dose: 250.0 mg/kg/injection, schedule: Q01DX001 (ip), vehicle: saline) is given as 0 of 10 on day 35; the survivor count (T/C endpoint: median tumor weight change, dose: 500.0 mg/kg/injection, schedule: Q01DX001 (ip), vehicle: saline) is 0 of 10 on day 35; the survivor count (T/C endpoint: median tumor weight change, dose: 1000.0 mg/kg/injection, schedule: Q01DX001 (ip), vehicle: saline) is given as 0 of 10 on day 35; the survivor count (T/C endpoint: median tumor weight change, dose: 2000.0 mg/kg/injection, schedule: Q01DX001 (ip), vehicle: saline) is 0 of 10 on day 35; the survivor count (T/C endpoint: median tumor weight change, dose: 4000.0 mg/kg/injection, schedule: Q01DX001 (ip), vehicle: saline) is reported as 0 of 10 on day 35.
As to `Nc1c(C(=O)O)[nH]c(=O)[nH]c1=O`, the T/C reads like this: (T/C endpoint: median tumor weight (est.), dose: 25.0 mg/kg/injection, schedule: Q07DX005 (ip), vehicle: saline with Tween-80, evaluated on day 30) 127 % of control; (T/C endpoint: median tumor weight (est.), dose: 50.0 mg/kg/injection, schedule: Q07DX005 (ip), vehicle: saline with Tween-80, evaluated on day 30) 140 % of control [9 of 10 alive].
Turning to `Cc1c(CNc2ccc(C(=O)NC(CC(=O)O)C(=O)O)cc2)ccc2nc(N)nc(N)c12` (configuration not stated), the survivor count (T/C endpoint: median tumor weight (est.), dose: 6.25 mg/kg/injection, schedule: Q07DX005 (ip), vehicle: saline with Tween-80) is listed as 4 of 10 on day 30; the survivor count under setting [1] was 0 of 10 on day 30 and 6 of 10 on day 30; the survivor count (T/C endpoint: median tumor weight (est.), dose: 25.0 mg/kg/injection, schedule: Q07DX005 (ip), vehicle: saline with Tween-80) was 0 of 10 on day 30 and 3 of 10 on day 30; the survivor count (T/C endpoint: median tumor weight (est.), dose: 50.0 mg/kg/injection, schedule: Q07DX005 (ip), vehicle: saline with Tween-80) is recorded as 0 of 10 on day 30; the survivor count (T/C endpoint: median tumor weight (est.), dose: 100.0 mg/kg/injection, schedule: Q07DX005 (ip), vehicle: saline with Tween-80) was 0 of 10 on day 30.
For `O=C(Nc1cccc(Cl)c1)ON1C(=O)C2C(C1=O)C1(Cl)C(Cl)C(Cl)C2(Cl)C1(Cl)Cl` (configuration not stated), the survivor count under setting [2] is 6 of 10 on day 32 and the survivor count under setting [3] is 0 of 10 on day 32.
`Cc1ccc2c(c1)N=C(Nc1ccccc1)N=S2(C)=O` (configuration not stated): the survivor count is, setting by setting: (T/C endpoint: median tumor weight change, dose: 62.5 mg/kg/injection, schedule: Q01DX001 (ip), vehicle: saline with Tween-80) 6 of 10 on day 43; (T/C endpoint: median tumor weight change, dose: 125.0 mg/kg/injection, schedule: Q01DX001 (ip), vehicle: saline with Tween-80) 5 of 10 on day 36 and 5 of 10 on day 43; under setting [2], 5 of 10 on day 43 and 6 of 10 on day 26; under setting [3], 0 of 10 on day 26 and 1 of 10 on day 43.
On to `CC(=O)Nc1cscc1NC(C)=O`, for which, under setting [4], the survivor count is 3 of 10 on day 29 and 5 of 10 on day 36.
On to `CNC(=O)OCc1c(COC(=O)NC)c(C)n(-c2ccc(OC)cc2)c1C`, for which, under “T/C endpoint: median tumor weight change, dose: 100.0 mg/kg/injection, schedule: Q01DX001 (ip), vehicle: Klucel (hydroxypropylcellulose) (HPC), evaluated on day 29”, the T/C is 125 % of control.
On to `BrC1CC(Br)c2c1c1c(c3c2C(Br)CC3Br)C(Br)CC1Br` (configuration not stated), for which the survivor count by setting is: under setting [1], 6 of 10 on day 30; (T/C endpoint: median tumor weight (est.), dose: 400.0 mg/kg/injection, schedule: Q07DX005 (ip), vehicle: saline with Tween-80) 6 of 10 on day 30. Further, where the note is “T/C endpoint: median tumor weight (est.), dose: 100.0 mg/kg/injection, schedule: Q07DX005 (ip), vehicle: saline with Tween-80, evaluated on day 30”, the T/C was 131 % of control.
In the case of `O=c1cc(-c2ccccc2)[nH]c2c1CCCC2`, the T/C (T/C endpoint: median tumor weight change, dose: 250.0 mg/kg/injection, schedule: Q01DX001 (ip), vehicle: saline with Tween-80, evaluated on day 37) is 134 % of control and the T/C (T/C endpoint: median tumor weight change, dose: 500.0 mg/kg/injection, schedule: Q01DX001 (ip), vehicle: saline with Tween-80, evaluated on day 37) was 141 % of control. Moreover, the survivor count under setting [4] is listed as 5 of 10 on day 37.
In the case of `Nc1ccc2c(c1)CN1C(=O)c3ccccc3C1=N2`, the T/C is, setting by setting: (T/C endpoint: median tumor weight change, dose: 250.0 mg/kg/injection, schedule: Q01DX001 (ip), vehicle: saline with Tween-80, evaluated on day 22) 99 % of control; (T/C endpoint: median tumor weight change, dose: 250.0 mg/kg/injection, schedule: Q01DX001 (ip), vehicle: saline with Tween-80, evaluated on day 24) 96 % of control; (T/C endpoint: median tumor weight change, dose: 250.0 mg/kg/injection, schedule: Q01DX001 (ip), vehicle: saline with Tween-80, evaluated on day 27) 97 % of control; (T/C endpoint: median tumor weight change, dose: 250.0 mg/kg/injection, schedule: Q01DX001 (ip), vehicle: saline with Tween-80, evaluated on day 28) 139 % of control; (T/C endpoint: median tumor weight change, dose: 250.0 mg/kg/injection, schedule: Q01DX001 (ip), vehicle: saline with Tween-80, evaluated on day 29) 88 % of control; (T/C endpoint: median tumor weight change, dose: 250.0 mg/kg/injection, schedule: Q01DX001 (ip), vehicle: saline with Tween-80, evaluated on day 36) 16 % of control [9 of 10 alive on day 36]. For the same compound, the T/C runs as follows: (T/C endpoint: median tumor weight change, dose: 500.0 mg/kg/injection, schedule: Q01DX001 (ip), vehicle: saline with Tween-80, evaluated on day 22) 104 % of control; (T/C endpoint: median tumor weight change, dose: 500.0 mg/kg/injection, schedule: Q01DX001 (ip), vehicle: saline with Tween-80, evaluated on day 24) 61 % of control; (T/C endpoint: median tumor weight change, dose: 500.0 mg/kg/injection, schedule: Q01DX001 (ip), vehicle: saline with Tween-80, evaluated on day 27) 50 % of control; (T/C endpoint: median tumor weight change, dose: 500.0 mg/kg/injection, schedule: Q01DX001 (ip), vehicle: saline with Tween-80, evaluated on day 28) 89 % of control; (T/C endpoint: median tumor weight change, dose: 500.0 mg/kg/injection, schedule: Q01DX001 (ip), vehicle: saline with Tween-80, evaluated on day 29) 59 % of control [9 of 10 alive on day 29]; (T/C endpoint: median tumor weight change, dose: 500.0 mg/kg/injection, schedule: Q01DX001 (ip), vehicle: saline with Tween-80, evaluated on day 36) 34 % of control. The T/C was 58 % of control (T/C endpoint: median tumor weight change, dose: 1000.0 mg/kg/injection, schedule: Q01DX001 (ip), vehicle: saline with Tween-80, evaluated on day 22); 67 % of control (T/C endpoint: median tumor weight change, dose: 1000.0 mg/kg/injection, schedule: Q01DX001 (ip), vehicle: saline with Tween-80, evaluated on day 24); 12 % of control [9 of 10 alive on day 27] (T/C endpoint: median tumor weight change, dose: 1000.0 mg/kg/injection, schedule: Q01DX001 (ip), vehicle: saline with Tween-80, evaluated on day 27); 55 % of control (T/C endpoint: median tumor weight change, dose: 1000.0 mg/kg/injection, schedule: Q01DX001 (ip), vehicle: saline with Tween-80, evaluated on day 28); 39 % of control (T/C endpoint: median tumor weight change, dose: 1000.0 mg/kg/injection, schedule: Q01DX001 (ip), vehicle: saline with Tween-80, evaluated on day 29); -7 % of control (T/C endpoint: median tumor weight change, dose: 1000.0 mg/kg/injection, schedule: Q01DX001 (ip), vehicle: saline with Tween-80, evaluated on day 36). Also, the survivor count under setting [4] was 1 of 10 on day 22, 1 of 10 on day 27, 4 of 10 on day 28, 4 of 10 on day 29.
`CNC(=O)/C=C/C1=CN2C(=O)c3ccc(C)c(O)c3NC(OC)C2C1` (configuration not stated): the survivor count was 1 of 10 on day 30 (T/C endpoint: median tumor weight change, dose: 0.15 mg/kg/injection, schedule: Q01DX001 (ip), vehicle: suspension in saline); 0 of 10 on day 30 (T/C endpoint: median tumor weight change, dose: 0.31 mg/kg/injection, schedule: Q01DX001 (ip), vehicle: suspension in saline); 0 of 10 on day 30 and 0 of 10 on day 39 (T/C endpoint: median tumor weight change, dose: 0.62 mg/kg/injection, schedule: Q01DX001 (ip), vehicle: suspension in saline); 3 of 10 on day 36 (T/C endpoint: median tumor weight change, dose: 1.25 mg/kg/injection, schedule: Q01DX001 (ip), vehicle: saline); 0 of 10 on day 39 (T/C endpoint: median tumor weight change, dose: 1.25 mg/kg/injection, schedule: Q01DX001 (ip), vehicle: suspension in saline); 0 of 10 on day 36 (T/C endpoint: median tumor weight change, dose: 2.5 mg/kg/injection, schedule: Q01DX001 (ip), vehicle: saline). Also, the survivor count reads like this: (T/C endpoint: median tumor weight change, dose: 2.5 mg/kg/injection, schedule: Q01DX001 (ip), vehicle: suspension in saline) 0 of 10 on day 39; (T/C endpoint: median tumor weight change, dose: 5.0 mg/kg/injection, schedule: Q01DX001 (ip), vehicle: saline) 0 of 10 on day 36; (T/C endpoint: median tumor weight change, dose: 5.0 mg/kg/injection, schedule: Q01DX001 (ip), vehicle: suspension in saline) 0 of 10 on day 39.
Take `ClC(Cl)=C(Cl)Cl`: the T/C (T/C endpoint: median tumor weight change, dose: 250.0 mg/kg/injection, schedule: Q01DX001 (ip), vehicle: other, evaluated on day 34) was 128 % of control. The survivor count is 1 of 10 on day 34 (T/C endpoint: median tumor weight change, dose: 500.0 mg/kg/injection, schedule: Q01DX001 (ip), vehicle: other) and 2 of 10 on day 34 (T/C endpoint: median tumor weight change, dose: 1000.0 mg/kg/injection, schedule: Q01DX001 (ip), vehicle: other).
